Data taken from article PMC6256988.
No constants are given. Whether binding was seen depends on the method and setting. For part of these data: Binding seen in cells or lysates may run through a third protein.

Amino acid sequences for entries named in this document (tags omitted). Residues count along the entry.
UniProt P02787, residues 20-698: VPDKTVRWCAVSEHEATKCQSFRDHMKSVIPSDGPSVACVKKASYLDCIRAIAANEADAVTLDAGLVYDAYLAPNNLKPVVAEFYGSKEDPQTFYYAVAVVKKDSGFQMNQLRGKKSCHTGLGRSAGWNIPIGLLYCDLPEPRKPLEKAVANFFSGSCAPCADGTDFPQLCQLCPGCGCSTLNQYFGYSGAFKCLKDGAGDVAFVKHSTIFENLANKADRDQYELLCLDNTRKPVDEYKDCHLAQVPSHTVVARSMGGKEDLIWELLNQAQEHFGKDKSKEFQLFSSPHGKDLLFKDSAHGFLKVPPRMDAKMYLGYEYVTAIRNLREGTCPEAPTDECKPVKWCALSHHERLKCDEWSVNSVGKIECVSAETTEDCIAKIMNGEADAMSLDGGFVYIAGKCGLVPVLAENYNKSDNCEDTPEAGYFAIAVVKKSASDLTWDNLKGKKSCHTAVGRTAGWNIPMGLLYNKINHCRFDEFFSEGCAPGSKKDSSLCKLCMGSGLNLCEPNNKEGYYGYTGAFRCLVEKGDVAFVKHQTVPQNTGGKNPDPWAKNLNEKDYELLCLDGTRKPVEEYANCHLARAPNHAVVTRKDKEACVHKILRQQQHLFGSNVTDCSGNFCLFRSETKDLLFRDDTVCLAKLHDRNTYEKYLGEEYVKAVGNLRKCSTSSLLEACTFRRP
UniProt Q96RR4: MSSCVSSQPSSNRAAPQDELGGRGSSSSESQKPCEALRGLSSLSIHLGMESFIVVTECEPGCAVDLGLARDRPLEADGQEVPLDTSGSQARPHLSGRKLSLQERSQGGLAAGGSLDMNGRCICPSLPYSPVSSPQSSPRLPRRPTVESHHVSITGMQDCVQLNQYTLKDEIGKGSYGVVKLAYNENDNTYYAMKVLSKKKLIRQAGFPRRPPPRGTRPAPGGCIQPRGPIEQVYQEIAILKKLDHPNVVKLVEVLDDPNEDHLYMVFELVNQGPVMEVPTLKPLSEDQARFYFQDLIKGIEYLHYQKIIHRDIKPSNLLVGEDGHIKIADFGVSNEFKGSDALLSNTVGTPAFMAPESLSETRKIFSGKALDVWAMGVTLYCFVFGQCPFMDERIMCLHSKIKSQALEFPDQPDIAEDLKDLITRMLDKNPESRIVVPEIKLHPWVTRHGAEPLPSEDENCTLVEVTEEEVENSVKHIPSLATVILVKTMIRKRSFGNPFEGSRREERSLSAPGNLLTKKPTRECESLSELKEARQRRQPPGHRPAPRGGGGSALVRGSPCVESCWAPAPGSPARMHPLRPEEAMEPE

Assays:
[1] = target: Flag-tagged transferrin (Human Transferrin full length, N-terminal Flag tag) (human) (UniProt P02787); experiment: cross-linking; Flag-TF-expressing HEK293 cells cross-linked with 2% paraformaldehyde in PBS for 10 min; gel mobility shift by SDS-PAGE and immunoblot for CaMKK2 and TF
[2] = target: Flag-tagged transferrin (Human Transferrin full length, N-terminal Flag tag) (human) (UniProt P02787); experiment: co-IP; Flag-TF immunoprecipitated from HEK293 lysates (PBS, 1% IGPAL630) with anti-Flag antibody on Dynabeads protein-G overnight, washed thrice; immunoblot with anti-TF and anti-CaMKK2
[3] = target: Flag-tagged transferrin (Human Transferrin full length, N-terminal Flag tag) (human) (UniProt P02787); experiment: native gel or EMSA; BN-PAGE (4-15% gradient) followed by second-dimension SDS-PAGE and immunoblot; lysates in PBS with 1.5% n-dodecyl beta-D-maltoside; vertical alignment of complexes compared, wild-type against CaMKK2 KO

Measured: binding

Ca2+/calmodulin-dependent protein kinase kinase 2 (endogenous, HEK293) (from UniProt Q96RR4 1-588) (enzyme)
no binding: all assays above
